# Reference: patent EP0423777A2, “Method of treating gastrointestinal motility disorders” (G.D. Searle & Co., priority 1989, dated 1991)
# The name of at least one read-out is uncertain.
# Tested on: Male Charles River Rats
# Assay: Rat gastric emptying protocol (enhancement of gastric emptying of a test meal)
# Type: in vivo
# Conditions: 1 milligram per kilogram, intraperitoneally, 30 minutes before the test meal
compound,measurement,value
CCNC(=O)[C@H]1O[C@@H](n2cnc3c(N)ncnc32)[C@H](O)[C@@H]1O [Example 16],Rat Gastric Emptying (percentage increase in gastric emptying),15.7%
